One substance from PMC4736186 can be followed below.

The chains behind the UniProt entries cited, without tags or fusion partners. Residues count along the entry.
UniProt P63038, residues 27-573: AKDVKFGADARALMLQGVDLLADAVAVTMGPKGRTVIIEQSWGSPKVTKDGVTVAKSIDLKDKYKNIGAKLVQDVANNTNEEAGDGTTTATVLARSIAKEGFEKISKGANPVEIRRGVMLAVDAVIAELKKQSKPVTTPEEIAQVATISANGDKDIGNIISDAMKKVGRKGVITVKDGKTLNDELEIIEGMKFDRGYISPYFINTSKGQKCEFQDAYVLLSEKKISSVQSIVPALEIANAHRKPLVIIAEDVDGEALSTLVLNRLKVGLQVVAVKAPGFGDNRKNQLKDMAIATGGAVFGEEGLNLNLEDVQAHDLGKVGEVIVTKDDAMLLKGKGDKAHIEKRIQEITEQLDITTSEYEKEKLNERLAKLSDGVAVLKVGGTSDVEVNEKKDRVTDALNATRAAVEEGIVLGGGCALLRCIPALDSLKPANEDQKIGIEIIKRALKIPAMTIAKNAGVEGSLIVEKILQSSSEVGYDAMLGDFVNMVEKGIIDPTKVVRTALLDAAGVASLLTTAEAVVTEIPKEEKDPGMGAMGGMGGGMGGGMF
UniProt Q9QUK6, residues 26-835: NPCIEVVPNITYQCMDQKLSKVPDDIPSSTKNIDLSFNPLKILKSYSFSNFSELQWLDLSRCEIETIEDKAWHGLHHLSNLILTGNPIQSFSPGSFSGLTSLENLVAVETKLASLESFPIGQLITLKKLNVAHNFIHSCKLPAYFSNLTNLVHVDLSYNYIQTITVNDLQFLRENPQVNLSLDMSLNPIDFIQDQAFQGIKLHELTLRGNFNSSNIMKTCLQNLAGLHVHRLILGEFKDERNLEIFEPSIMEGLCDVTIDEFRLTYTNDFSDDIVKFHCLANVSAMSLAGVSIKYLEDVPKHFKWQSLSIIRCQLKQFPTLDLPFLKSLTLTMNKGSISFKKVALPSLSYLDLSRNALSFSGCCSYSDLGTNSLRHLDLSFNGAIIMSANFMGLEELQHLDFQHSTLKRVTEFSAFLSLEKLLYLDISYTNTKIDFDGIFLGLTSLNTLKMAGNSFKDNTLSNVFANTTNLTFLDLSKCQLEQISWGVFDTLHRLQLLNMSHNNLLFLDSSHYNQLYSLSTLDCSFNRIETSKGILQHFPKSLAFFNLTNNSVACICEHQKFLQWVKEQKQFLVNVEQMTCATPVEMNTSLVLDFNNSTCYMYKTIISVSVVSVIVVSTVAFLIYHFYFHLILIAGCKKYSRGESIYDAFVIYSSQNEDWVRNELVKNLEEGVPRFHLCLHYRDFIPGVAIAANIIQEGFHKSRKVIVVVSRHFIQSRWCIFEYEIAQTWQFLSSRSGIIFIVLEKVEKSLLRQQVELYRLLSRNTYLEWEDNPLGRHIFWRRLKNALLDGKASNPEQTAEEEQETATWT

Results are given in words; binding and its absence hold for the method and conditions named. Binding seen in cells or lysates may run through a third protein. Some binding calls cover weakened binding; strength is not graded here.

In this experiment the target is HSP60 (mouse (endogenous in N9)) (UniProt P63038). The experiment can be described thus: co-IP; whole-cell extracts (500 ug) of N9 microglial cells, untreated or treated with IL-1β for 3 h; lysis in 50 mM Tris pH 7.4, 150 mM NaCl, 5 mM EDTA, 1 % NP-40; 5 ug anti-HSP60 antibody overnight at 4 °C, protein A Sepharose 2 h at 4 °C; blot with anti-TLR4 and anti-HSP60.

With “toll-like receptor 4 (from UniProt Q9QUK6 26-835)”, the binding entry is “binds”.
